# Assay results taken from the supplement of paper PMC12819154, “High-throughput peptide-centric local stability assay extends protein–ligand identification to membrane proteins, tissues and bacteria” (Nature Structural & Molecular Biology, 2025).
# Amino acid sequences for entries named in this document (tags omitted). A change or cut given only in a name is not applied to a line headed by its entry.
# UniProt Q9DBD0: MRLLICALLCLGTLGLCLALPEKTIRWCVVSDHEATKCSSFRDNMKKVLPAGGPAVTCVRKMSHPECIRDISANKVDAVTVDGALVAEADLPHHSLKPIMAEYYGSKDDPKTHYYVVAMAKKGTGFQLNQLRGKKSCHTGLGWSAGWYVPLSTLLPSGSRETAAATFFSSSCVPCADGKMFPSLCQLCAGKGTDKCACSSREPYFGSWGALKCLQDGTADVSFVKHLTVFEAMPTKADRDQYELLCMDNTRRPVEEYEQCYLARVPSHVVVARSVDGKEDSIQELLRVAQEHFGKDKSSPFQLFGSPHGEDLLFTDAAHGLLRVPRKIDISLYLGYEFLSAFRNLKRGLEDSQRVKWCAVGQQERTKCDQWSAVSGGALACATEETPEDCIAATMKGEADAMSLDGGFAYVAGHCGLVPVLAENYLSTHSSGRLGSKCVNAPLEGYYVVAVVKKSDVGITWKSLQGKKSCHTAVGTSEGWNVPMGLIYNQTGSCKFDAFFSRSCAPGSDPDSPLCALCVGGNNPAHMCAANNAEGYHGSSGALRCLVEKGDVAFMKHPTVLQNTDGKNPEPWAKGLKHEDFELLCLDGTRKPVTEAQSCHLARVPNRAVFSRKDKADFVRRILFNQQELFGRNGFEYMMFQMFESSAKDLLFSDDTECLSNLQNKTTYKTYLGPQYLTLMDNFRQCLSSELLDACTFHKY
# UniProt Q9D0E3: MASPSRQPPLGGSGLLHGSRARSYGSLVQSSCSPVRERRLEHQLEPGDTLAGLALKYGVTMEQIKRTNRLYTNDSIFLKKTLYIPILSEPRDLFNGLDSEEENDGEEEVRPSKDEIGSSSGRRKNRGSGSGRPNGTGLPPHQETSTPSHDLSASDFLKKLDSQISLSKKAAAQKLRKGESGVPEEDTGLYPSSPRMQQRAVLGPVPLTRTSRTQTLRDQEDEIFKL
# UniProt Q9DBY1, whole entry: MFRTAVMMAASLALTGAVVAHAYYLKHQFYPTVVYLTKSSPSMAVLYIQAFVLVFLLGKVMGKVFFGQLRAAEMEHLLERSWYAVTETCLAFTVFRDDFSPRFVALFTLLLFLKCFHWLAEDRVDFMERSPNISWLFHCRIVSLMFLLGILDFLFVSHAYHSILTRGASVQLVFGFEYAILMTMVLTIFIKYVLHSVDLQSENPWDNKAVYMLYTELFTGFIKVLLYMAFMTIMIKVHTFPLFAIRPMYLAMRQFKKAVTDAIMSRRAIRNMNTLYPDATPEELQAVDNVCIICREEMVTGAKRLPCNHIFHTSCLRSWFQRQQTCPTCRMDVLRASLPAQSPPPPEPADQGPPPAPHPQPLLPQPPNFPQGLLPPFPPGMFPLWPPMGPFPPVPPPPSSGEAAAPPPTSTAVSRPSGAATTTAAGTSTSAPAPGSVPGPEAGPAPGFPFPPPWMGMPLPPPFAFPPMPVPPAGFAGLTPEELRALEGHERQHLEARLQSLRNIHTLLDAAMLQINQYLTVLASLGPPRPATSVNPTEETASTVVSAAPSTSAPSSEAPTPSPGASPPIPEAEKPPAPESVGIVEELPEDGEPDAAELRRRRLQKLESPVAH
# UniProt Q9D898, whole entry: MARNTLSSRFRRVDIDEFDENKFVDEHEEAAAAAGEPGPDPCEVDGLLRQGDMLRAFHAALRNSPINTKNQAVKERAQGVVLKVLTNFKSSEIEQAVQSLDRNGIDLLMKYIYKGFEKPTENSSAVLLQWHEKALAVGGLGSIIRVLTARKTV
# UniProt Q9D0F9: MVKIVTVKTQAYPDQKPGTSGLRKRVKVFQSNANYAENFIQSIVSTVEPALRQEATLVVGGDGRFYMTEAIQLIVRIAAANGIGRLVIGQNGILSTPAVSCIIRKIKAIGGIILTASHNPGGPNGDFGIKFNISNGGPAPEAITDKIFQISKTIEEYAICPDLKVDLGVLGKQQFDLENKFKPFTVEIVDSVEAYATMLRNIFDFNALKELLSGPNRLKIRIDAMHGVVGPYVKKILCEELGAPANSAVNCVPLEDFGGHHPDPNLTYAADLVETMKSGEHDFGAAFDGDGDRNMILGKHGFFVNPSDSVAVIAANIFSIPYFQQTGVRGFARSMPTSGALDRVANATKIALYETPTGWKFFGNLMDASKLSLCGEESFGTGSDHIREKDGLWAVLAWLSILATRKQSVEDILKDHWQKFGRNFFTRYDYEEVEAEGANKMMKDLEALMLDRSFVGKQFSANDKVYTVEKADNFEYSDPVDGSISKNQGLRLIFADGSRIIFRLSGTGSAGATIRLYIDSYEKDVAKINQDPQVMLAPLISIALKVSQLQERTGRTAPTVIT
# UniProt Q9D937: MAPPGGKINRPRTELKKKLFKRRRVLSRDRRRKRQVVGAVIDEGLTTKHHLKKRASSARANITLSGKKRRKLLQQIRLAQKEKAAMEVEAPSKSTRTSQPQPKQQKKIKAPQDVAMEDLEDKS
# UniProt Q9D009: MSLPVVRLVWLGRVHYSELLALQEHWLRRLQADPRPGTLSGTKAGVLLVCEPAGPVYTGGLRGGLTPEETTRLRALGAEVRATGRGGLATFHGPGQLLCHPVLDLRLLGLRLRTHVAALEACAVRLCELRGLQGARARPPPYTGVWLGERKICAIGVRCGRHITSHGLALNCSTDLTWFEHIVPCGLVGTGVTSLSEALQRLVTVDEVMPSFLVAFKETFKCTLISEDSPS
# UniProt Q9DBC7, whole entry: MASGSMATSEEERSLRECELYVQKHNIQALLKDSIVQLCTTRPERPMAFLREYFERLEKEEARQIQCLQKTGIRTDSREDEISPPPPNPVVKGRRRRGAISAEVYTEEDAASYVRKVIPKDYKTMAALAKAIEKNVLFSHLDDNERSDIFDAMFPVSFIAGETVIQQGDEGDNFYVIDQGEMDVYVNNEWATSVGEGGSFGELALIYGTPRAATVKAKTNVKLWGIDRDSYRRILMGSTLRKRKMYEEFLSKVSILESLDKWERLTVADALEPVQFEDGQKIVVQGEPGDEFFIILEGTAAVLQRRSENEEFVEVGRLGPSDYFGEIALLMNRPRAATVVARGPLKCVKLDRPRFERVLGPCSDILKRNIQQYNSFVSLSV
# UniProt Q9D8Y1: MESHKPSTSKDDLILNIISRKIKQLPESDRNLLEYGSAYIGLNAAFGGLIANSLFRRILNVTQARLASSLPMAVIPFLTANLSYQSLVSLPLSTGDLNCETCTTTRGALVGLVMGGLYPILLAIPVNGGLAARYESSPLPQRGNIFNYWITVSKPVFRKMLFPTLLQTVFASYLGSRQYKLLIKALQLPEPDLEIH
# UniProt Q9D2R0: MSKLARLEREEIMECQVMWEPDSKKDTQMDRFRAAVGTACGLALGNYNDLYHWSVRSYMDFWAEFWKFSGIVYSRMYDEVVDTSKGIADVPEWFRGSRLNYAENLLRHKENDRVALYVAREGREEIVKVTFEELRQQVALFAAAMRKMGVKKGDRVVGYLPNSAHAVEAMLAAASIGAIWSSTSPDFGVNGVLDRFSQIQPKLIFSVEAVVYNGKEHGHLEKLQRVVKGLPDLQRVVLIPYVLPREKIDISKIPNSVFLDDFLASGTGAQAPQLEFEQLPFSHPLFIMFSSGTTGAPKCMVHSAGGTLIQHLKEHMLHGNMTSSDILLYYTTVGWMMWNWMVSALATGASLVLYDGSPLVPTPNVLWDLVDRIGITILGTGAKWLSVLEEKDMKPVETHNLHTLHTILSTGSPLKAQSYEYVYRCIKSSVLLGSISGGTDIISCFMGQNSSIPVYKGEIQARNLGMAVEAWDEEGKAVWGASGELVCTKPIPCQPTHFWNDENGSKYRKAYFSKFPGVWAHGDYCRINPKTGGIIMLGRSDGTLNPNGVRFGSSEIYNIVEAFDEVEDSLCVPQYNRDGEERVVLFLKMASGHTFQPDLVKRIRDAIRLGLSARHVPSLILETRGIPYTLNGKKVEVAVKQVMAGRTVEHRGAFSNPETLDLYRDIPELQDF
# UniProt Q9CYF5, whole entry, looked up: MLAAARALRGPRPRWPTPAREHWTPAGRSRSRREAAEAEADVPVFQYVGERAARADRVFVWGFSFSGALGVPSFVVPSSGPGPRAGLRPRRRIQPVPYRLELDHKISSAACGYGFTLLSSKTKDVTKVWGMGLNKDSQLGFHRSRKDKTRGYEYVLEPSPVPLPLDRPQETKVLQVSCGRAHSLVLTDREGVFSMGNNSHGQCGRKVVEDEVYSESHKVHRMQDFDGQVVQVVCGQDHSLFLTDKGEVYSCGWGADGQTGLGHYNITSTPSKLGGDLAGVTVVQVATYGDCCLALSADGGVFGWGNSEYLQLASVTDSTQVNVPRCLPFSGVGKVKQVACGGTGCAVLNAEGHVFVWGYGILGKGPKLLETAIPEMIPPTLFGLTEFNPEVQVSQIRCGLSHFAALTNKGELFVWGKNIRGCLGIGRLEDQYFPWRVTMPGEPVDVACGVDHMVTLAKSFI
# UniProt Q9CZH7: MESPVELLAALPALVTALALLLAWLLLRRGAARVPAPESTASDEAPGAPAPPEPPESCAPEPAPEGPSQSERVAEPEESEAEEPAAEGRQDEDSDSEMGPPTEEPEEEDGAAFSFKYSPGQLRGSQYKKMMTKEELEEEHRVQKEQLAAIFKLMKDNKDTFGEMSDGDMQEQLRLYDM
# UniProt Q9D8S4: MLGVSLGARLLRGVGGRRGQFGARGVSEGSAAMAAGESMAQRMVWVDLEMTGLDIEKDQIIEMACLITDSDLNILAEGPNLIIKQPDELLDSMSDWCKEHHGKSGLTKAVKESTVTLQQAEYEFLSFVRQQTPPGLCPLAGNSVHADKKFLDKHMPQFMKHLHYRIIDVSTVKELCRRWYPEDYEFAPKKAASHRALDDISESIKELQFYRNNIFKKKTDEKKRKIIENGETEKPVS
# UniProt Q9DB26: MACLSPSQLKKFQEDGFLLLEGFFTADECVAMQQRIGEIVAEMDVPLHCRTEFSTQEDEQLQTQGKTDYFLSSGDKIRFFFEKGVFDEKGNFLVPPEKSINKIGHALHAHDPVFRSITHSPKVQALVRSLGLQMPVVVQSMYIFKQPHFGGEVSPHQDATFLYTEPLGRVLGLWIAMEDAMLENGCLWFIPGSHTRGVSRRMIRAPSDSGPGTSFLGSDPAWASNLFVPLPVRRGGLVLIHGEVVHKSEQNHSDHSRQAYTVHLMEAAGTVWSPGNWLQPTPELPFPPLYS
# UniProt Q9CZL5: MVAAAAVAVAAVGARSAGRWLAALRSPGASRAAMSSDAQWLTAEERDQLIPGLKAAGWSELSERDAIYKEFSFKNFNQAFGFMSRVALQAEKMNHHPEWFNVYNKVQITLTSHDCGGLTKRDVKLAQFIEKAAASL
# UniProt Q9CYS6: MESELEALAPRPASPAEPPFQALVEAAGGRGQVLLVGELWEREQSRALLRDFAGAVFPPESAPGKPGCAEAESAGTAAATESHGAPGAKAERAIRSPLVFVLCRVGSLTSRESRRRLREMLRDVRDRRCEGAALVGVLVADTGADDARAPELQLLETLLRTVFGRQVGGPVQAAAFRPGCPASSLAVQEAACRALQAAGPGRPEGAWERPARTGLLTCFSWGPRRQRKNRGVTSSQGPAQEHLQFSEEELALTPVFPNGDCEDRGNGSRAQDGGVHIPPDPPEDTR
# UniProt Q9CXS4: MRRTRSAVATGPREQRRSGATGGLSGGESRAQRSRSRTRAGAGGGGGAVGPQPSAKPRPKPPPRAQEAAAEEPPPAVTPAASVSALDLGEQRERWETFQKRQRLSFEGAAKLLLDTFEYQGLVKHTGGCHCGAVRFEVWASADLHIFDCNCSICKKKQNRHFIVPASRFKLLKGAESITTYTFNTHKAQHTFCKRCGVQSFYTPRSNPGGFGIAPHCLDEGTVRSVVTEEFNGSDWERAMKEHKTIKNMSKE
# UniProt Q9D727: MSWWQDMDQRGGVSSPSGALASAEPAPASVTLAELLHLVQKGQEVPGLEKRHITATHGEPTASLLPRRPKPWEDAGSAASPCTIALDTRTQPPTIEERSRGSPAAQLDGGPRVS
# UniProt Q9DC37: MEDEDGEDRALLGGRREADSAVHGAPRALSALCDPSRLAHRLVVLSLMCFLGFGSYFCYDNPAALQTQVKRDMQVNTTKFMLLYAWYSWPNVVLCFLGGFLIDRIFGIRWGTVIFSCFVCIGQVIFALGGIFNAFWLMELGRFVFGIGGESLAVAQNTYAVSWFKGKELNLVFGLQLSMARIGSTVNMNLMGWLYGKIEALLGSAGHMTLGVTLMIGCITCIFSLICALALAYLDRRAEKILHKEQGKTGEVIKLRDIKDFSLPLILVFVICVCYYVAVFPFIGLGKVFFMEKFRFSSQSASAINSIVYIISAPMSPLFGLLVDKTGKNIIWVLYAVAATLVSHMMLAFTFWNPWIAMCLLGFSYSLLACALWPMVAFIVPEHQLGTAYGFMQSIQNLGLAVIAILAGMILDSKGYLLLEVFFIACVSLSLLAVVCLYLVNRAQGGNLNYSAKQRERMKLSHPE
# UniProt Q9CY24: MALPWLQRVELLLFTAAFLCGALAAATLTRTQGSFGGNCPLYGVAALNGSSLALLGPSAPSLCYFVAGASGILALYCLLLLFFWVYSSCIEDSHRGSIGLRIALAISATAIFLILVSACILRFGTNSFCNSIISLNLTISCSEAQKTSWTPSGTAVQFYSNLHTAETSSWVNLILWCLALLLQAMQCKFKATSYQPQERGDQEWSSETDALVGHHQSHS
# Some of the results follow. Small differences around the control level are noise.
# Compound: CN[C@@H]1C[C@H]2O[C@@](C)([C@@H]1OC)n1c3ccccc3c3c4c(c5c6ccccc6n2c5c31)C(=O)NC4 [staurosporine]
# Assay: log2 fold change of pooled soluble protein (PISA), ligand vs vehicle (log2 ratio); higher = more thermally stabilized
# Details: ligand concentration: 20 uM; assay format: PISA pool 52.9/55.5/58.6 C
row,Target,log2 fold change of pooled soluble protein
1,UniProt Q9D2V7,-0.107
2,UniProt Q9DBD0,0.0652
3,UniProt Q9D0I4,0.159
4,UniProt Q9D0E3,-0.242
5,UniProt Q9DBY1,-0.0249
6,UniProt Q9D898,-0.154
7,UniProt Q9D0F9,0.0103
8,UniProt Q9D937,-0.308
9,UniProt Q9D009,-0.266
10,UniProt Q9DBC7,0.0612
11,UniProt Q9D8Y1,-0.0165
12,UniProt Q9D0A3,0.005
13,UniProt Q9D2R0,0.000379
14,UniProt Q9CYV5,-0.031
15,UniProt Q9D1I5,-0.0344
16,UniProt Q9D967,-0.124
17,UniProt Q9CYF5,0.00137
18,UniProt Q9CZH7,-0.263

row,Target,log2 fold change of pooled soluble protein
1,UniProt Q9CY58,0.0723
2,UniProt Q9D9M5,0.0213
3,UniProt Q9D8S4,-0.0654
4,UniProt Q9DB26,0.113
5,UniProt Q9CZ13,-0.0871
6,UniProt Q9CYK1,-0.291
7,UniProt Q9CXR1,0.56
8,UniProt Q9DC07,0.0952
9,UniProt Q9CZL5,0.0999
10,UniProt Q9DBA8,0.0234
11,UniProt Q9CYS6,-0.324
12,UniProt Q9D8T7,-0.0912
13,UniProt Q9CXS4,-0.0956
14,UniProt Q9D727,0.0859
15,UniProt Q9CZX8,0.115
16,UniProt Q9DC37,0.0545
17,UniProt Q9CY24,0.0332
18,UniProt Q9D816,0.478

# A different layout for part of the listing above.
row | Target | log2 fold change of pooled soluble protein
5 | UniProt Q9CZ13 | -0.0871
12 | UniProt Q9D8T7 | -0.0912
18 | UniProt Q9D816 | 0.478
